Measurements reported in PubChem BioAssay AID1224826 (NIAID, 2016)
The whole screen tested about 17,000 reagents; shown is an unselected part. Over the whole deposit, about 1,110 (6.6%) are marked active. 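Active means lowered or raised reporter signal; replicate intensities are raw and not normalised per plate.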 Some reagents were tested in more than one well and are listed for each. Not all columns of the deposit are shown.

- Purpose: 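Knock-downs that raise or lower Tnf reporter signal after endotoxin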 (primary screen)
- Cells: RAW264.7 G9 macrophages from mouse bearing reporters for p65 (GFP) and the Tnf promoter (mCherry)
- Reagents: siRNA pool against mouse genes, 100 nM
- Duration: 16 h of LPS stimulation, after 2 days of siRNA transfection
- Treatment: bacterial lipopolysaccharide (Salmonella minnesota R595), 10 ng/ml
- Measured: 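Nuclear mCherry signal of the Tnf promoter reporter measured by imaging after background removal, scaled to each plate median and turned into robust z-scores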
- Scale: Tnf reporter robust z-score: higher = stronger Tnf promoter reporter signal after LPS
- Hit rule: 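a well counts as active at a score of -1.3 or below (Tlr4 knock-down control median) or above 3 (raised signal); controls and wells holding fewer than 50 cells are excluded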
- Meaning of the calls: active = Tnf reporter clearly lowered or raised; inactive = no clear change in Tnf reporter

Depletion of Nt5m [SID315476398] came out at: Tnf reporter robust z-score 2.06; fewer than 50 cells in well enough cells in well; inactive.
After knock-down of Or4c52 [SID315480437], the record shows Tnf reporter robust z-score 2.25; fewer than 50 cells in well enough cells in well; inactive.
After knock-down of Cast [SID315465779] the results were Tnf reporter robust z-score -0.51; fewer than 50 cells in well enough cells in well; inactive.
Depletion of Trdv2-2 [SID315481418] came out at: Tnf reporter robust z-score 0.43; fewer than 50 cells in well enough cells in well; inactive.
Depletion of Lrig3 [SID315481303] came out at: Tnf reporter robust z-score 0.54; fewer than 50 cells in well enough cells in well; inactive.
Against Lmntd1 [SID315474834], the entry reads fewer than 50 cells in well fewer than 50 cells per well; well left out of calls; inactive.
Knock-down of Map4k5 [SID315481878] came out at: Tnf reporter robust z-score -1.63; fewer than 50 cells in well enough cells in well; active.
Against Map4k5 [SID315481878] the deposit lists Tnf reporter robust z-score -0.96; fewer than 50 cells in well enough cells in well; inactive.
For Hexa [SID315467185], the values are Tnf reporter robust z-score 0.77; fewer than 50 cells in well enough cells in well; inactive.
Against Nr1h4 [SID315469070], the values are Tnf reporter robust z-score 0.57; fewer than 50 cells in well enough cells in well; inactive.
Knock-down of Or13a17 [SID315468314] resulted in: Tnf reporter robust z-score -0.28; fewer than 50 cells in well enough cells in well; inactive.
Against Idi1 [SID315481112], the values are Tnf reporter robust z-score 0.54; fewer than 50 cells in well enough cells in well; inactive.
Eloa [SID315470554] showed Tnf reporter robust z-score 0.01; fewer than 50 cells in well enough cells in well; inactive.
For Srbd1 [SID315475588] the deposit lists Tnf reporter robust z-score -0.56; fewer than 50 cells in well enough cells in well; inactive.
After knock-down of Inpp5d [SID315467482], the screen gave Tnf reporter robust z-score -1.25; fewer than 50 cells in well enough cells in well; inactive.
Against Ifih1 [SID315474257] the deposit lists Tnf reporter robust z-score 0.89; fewer than 50 cells in well enough cells in well; inactive.
Against Or52d3 [SID315471725], the values are Tnf reporter robust z-score -1.59; fewer than 50 cells in well enough cells in well; active.
Knock-down of Ercc8 [SID315474411] gave: Tnf reporter robust z-score 0.27; fewer than 50 cells in well enough cells in well; inactive.
Acss2 [SID315472024] gave Tnf reporter robust z-score 2.55; fewer than 50 cells in well enough cells in well; inactive.
After knock-down of Kctd4 [SID315473077] the results were Tnf reporter robust z-score -0.38; fewer than 50 cells in well enough cells in well; inactive.
With knock-down of Aplf [SID315474455], the record shows fewer than 50 cells in well fewer than 50 cells per well; well left out of calls; inactive.
Paox [SID315477741] showed Tnf reporter robust z-score -1.91; fewer than 50 cells in well enough cells in well; active.
Depletion of Ahcyl1 [SID315478735] resulted in: Tnf reporter robust z-score 0.3; fewer than 50 cells in well enough cells in well; inactive.
With knock-down of Pi4kb [SID315476627] the results were fewer than 50 cells in well fewer than 50 cells per well; well left out of calls; inactive.
With knock-down of Epb41l1 [SID315466512], the screen gave Tnf reporter robust z-score 0.18; fewer than 50 cells in well enough cells in well; inactive.
After knock-down of Txndc8 [SID315473003] the results were fewer than 50 cells in well fewer than 50 cells per well; well left out of calls; inactive.
Against Mrps18b [SID315472749], the values are Tnf reporter robust z-score -0.17; fewer than 50 cells in well enough cells in well; inactive.

2 neighbouring entries from above:
Ifih1 [SID315474257] — Tnf reporter robust z-score = 0.89; fewer than 50 cells in well = enough cells in well; Call = inactive
Or52d3 [SID315471725] — Tnf reporter robust z-score = -1.59; fewer than 50 cells in well = enough cells in well; Call = active
